Measurements reported in PubChem BioAssay AID1259308 (NCATS, 2017)
The deposit covers about 59,000 reagents; shown is a part drawn at random. Over the whole deposit, about 1,510 (2.6%) are marked active. 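Calls use total luciferase alone and ignore viability, so some active siRNAs may act by altering cell number.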 A number with no mark means an inactive call. Reagents against one gene are numbered here. Further read-outs or replicates are left out here.

Screen: 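Knock-downs that increase output of a recombinant reporter protein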 (primary screen)
Cell system: human HEK293 embryonic kidney cells stably expressing firefly luciferase (HEK-CMV-Luc2-Hygro)
Reagents: single siRNA against human genes, 0.8 pmol siRNA per well
Time to read-out: 72 h
Detection: 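Luciferase light (ONE-Glo) measured on one replicate plate set and viability (CellTiter-Glo) on the other, scaled to a negative control siRNA, with robust z-scores and luciferase per cell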
Reading the numbers: total luciferase, z-score: higher = more reporter protein produced
Call rule: 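Active when the median/MAD z-score for overall luciferase is greater than 3; a gene was taken forward for validation with new siRNAs if at least two of its three siRNAs passed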
Meaning of the calls: active = raised luciferase; inactive = no rise

target gene | reagent no. | total luciferase, z-score
RBMX | 1 | 0.853
RBMX | 2 | -0.829
RBMX | 3 | -0.437
FCAR | 1 | 0.349
FCAR | 2 | -0.118
FCAR | 3 | 0.0832
PEX5L | 1 | -0.412
PEX5L | 2 | 2.22
PEX5L | 3 | 0.344
SLC25A16 | 1 | -0.418
SLC25A16 | 2 | 1.99
SLC25A16 | 3 | 0.103
DDI2 | 1 | 0.591
DDI2 | 2 | -0.0143
DDI2 | 3 | -0.916
DDI2 | 4 | 1.85
DDI2 | 5 | 2.33
DDI2 | 6 | -1.7
REXO2 | 1 | -0.0883
REXO2 | 2 | 0.0522
REXO2 | 3 | 0.202
CHD8 | 1 | -0.174
CHD8 | 2 | 0.383
CHD8 | 3 | 3.67 (active)
SFTPA1 | 1 | -0.462
SFTPA1 | 2 | 2.98
SFTPA1 | 3 | 1.15
ZNF548 | 1 | 0.265
ZNF548 | 2 | -0.84
ZNF548 | 3 | -0.00885
PLXDC1 | 1 | -1.14
PLXDC1 | 2 | 1.42
PLXDC1 | 3 | -3.48
FAM20C | 1 | 0.0916
FAM20C | 2 | 1.56
FAM20C | 3 | -1.7
OSBPL11 | 1 | -0.329
OSBPL11 | 2 | 0.401
OSBPL11 | 3 | 0.21
MDH1 | 1 | -1.17
MDH1 | 2 | -0.0393
MDH1 | 3 | 0.672
PLEKHH3 | 1 | -1.86
PLEKHH3 | 2 | 0.22
PLEKHH3 | 3 | -0.664
CXCR3 | 1 | -0.129
CXCR3 | 2 | -0.524
CXCR3 | 3 | -1.37
SMC6 | 1 | -0.0639
SMC6 | 2 | -1.34
SMC6 | 3 | -0.0841
RNF32 | 1 | 0.295
RNF32 | 2 | -0.466
RNF32 | 3 | 0.583
ALX4 | 1 | -0.354
ALX4 | 2 | -1.31
ALX4 | 3 | -0.501
TGM3 | 1 | 1.45
TGM3 | 2 | -0.43
TGM3 | 3 | 1.15
DCTN1 | 1 | -1.71
DCTN1 | 2 | -0.945
DCTN1 | 3 | 2.38
COMMD8 | 1 | -3.14
COMMD8 | 2 | 0.298
COMMD8 | 3 | -0.0565
THG1L | 1 | 0.402
THG1L | 2 | 0.278
THG1L | 3 | 0.516
LOC729770 (retired record) | 1 | 2.89
LOC729770 (retired record) | 2 | 0.55
LOC729770 (retired record) | 3 | -0.306
SRP68 | 1 | -0.736
SRP68 | 2 | 1.22
SRP68 | 3 | -0.255
